Laboratory results from PubChem BioAssay AID504467 (National Center for Advancing Translational Sciences (NCATS), 2011).
The campaign covered roughly 330,000 compounds. About 7,700 (2.3%) were called active. This list was built around the results that the source calls inconclusive (neither active nor inactive); the mix of calls is not that of the screen. Calls come from the whole dose curve; as a rule, active = well fitted inhibition curve with a large enough effect; inconclusive = small, poorly fitted or top-dose-only effect, or effect the other way; inactive = flat fitted curve, though single readings scatter. A potency beside an inconclusive call is a rough fit, not a confirmed value.

experiment: qHTS screen for small molecules that inhibit ELG1-dependent DNA repair in human embryonic kidney (HEK293T) cells expressing luciferase-tagged ELG1; conditions: HEK293T ELG1-luciferase reporter, luminescence, 16 h, DNA damage induced by 5-fluorouridine; activity change, negative = inhibition: at 46.1 µM (top of the series); note: nearly all actives have a fitted effect of over 55% in size
Procedure, shortened: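 Overnight (16 hr) co-exposure of 2,000 cells/well to 5-fluorouridine and compound at 37 °C preceded detection. Luciferase was quantified via ONE-Glo luminescence; loss of signal denotes inhibition.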
% is set by controls: 0 for no effect and ±100 for the full control effect; potency is the fitted concentration of half-maximal effect.

| Compound | Potency | activity change, negative = inhibition |
| --- | --- | --- |
| COc1ccc(C(=O)N/N=C/c2ccc(OC)c(COc3ccc(F)cc3F)c2)cc1 | active: 9.2 µM |  |
| CN(C)S(=O)(=O)c1cccc(N2C(=O)CC3(CCCCC3)CC2=O)c1 | inconclusive: 18.3 µM [inhibitor, single point] |  |
| CC(=C/c1ccco1)/C=N/NC(=O)CSc1nnc(SCc2ccc(C)cc2)s1 | inconclusive: 11.6 µM [activator, partial curve] |  |
| COc1ccc(C(CNC(=O)c2ccco2)N2CCOCC2)cc1 (configuration not stated) | inconclusive: 18.3 µM [activator, single point] |  |
| S=c1[nH]nc(-c2ccc(Br)cc2)n1-c1ccc(Br)cc1 |  | inactive: 1.8% |
| O=C(COc1ccc(F)cc1)c1c(O)cc(O)cc1O | inconclusive: 13 µM [activator, partial curve] |  |
| O=C(C1=NN(c2ccccc2)C2C(=O)N(c3cccc(Cl)c3)C(=O)C12)c1ccccc1 (configuration not stated) | inconclusive: 20.6 µM [activator, partial curve, poor fit] |  |
| COc1ccc(OC)c(Nc2nc(NCc3ccco3)nc(N)c2[N+](=O)[O-])c1 | inconclusive: 1.03 µM [inhibitor, partial curve] |  |
| COc1ccc(CCNC(=O)c2ccc3c(c2)N(Cc2ccc(C)cc2)CCS3)cc1OC | inconclusive: 18.3 µM [inhibitor, single point] |  |
| Clc1cccc2c1Sc1ccccc1CC2N1CCNCC1 (configuration not stated) | inconclusive: 20.6 µM [inhibitor, partial curve] |  |
| O=S(=O)(c1ccc(Br)s1)N1CCN(c2ccccn2)CC1 | inconclusive: 25.9 µM [inhibitor, single point] |  |
| O=C(NC(=S)NCc1ccccc1)c1cccc(Cl)c1 |  | inactive: -2.89% |
| Cc1ccc(N2CCCn3c2cc(C)c(C#N)c3=O)cc1Cl | inconclusive: 25.9 µM [inhibitor, partial curve, poor fit] |  |
| CCOc1ccc(C(=O)N2CCCC2C(=O)O)cc1 (configuration not stated) | inconclusive: 18.4 µM [activator, single point] |  |
| COc1cc(/C=C2/CC/C(=C/c3ccc(O)c(OC)c3)C2=O)ccc1O | inconclusive: 6.51 µM [inhibitor, partial curve, poor fit] |  |
| Cc1ccccc1NC(=O)Cn1nc(C(=O)O)c2ccccc2c1=O |  | inactive: 2.33% |
| Cc1ccc2cc(CCNS(=O)(=O)c3ccc(Br)cc3)c(=O)[nH]c2c1C | inconclusive: 29.1 µM [inhibitor, single point] |  |
| CCOC(=O)c1cc2c(ccn2C)n1CC(=O)N1CCN(c2ccc(F)cc2)CC1 |  | inactive: 2.57% |
| CCOc1ccc(C(=O)NCCCN2CCCC2=O)cc1 | inconclusive: 18.4 µM [activator, single point] |  |
| CCOc1ccc(C2OC34CCCCC3C(C#N)(C#N)C2(C#N)C(=N)O4)cc1OC (configuration not stated) |  | inactive: -1.59% |
| Cc1c(C(=O)N(C)Cc2nc3ccccc3c(=O)[nH]2)oc2ccccc12 | inconclusive: 13 µM [inhibitor, partial curve] |  |
| COc1ccc(NC(=O)c2ccc[n+]([O-])c2)cc1 |  | inactive: 7.46% |
| NC(=O)CNC(=O)c1ccc(Cl)cc1 |  | inactive: -16.4% |
| CCOC(=O)C1=C(C)OC(N)=C(C#N)C1c1cc2c(cc1[N+](=O)[O-])OCO2 (configuration not stated) | inconclusive: 29.1 µM [inhibitor, single point] |  |

| Compound | Potency | activity change, negative = inhibition |
| --- | --- | --- |
| CCCn1nnnc1SCC(=O)N1CCCc2ccccc21 | inconclusive: 18.4 µM [activator, partial curve] |  |
| Cc1noc(C)c1C(=O)NCCc1ccc(Cl)cc1 |  | inactive: 3.77% |
| CCCCn1c(=O)[nH]c(=O)c2c1nc(-c1ccc(OC)c(Br)c1)n2CC(C)C | inconclusive: 29.1 µM [inhibitor, single point] |  |
| COc1ccccc1-c1cc(C(=O)NCc2cccs2)no1 | inconclusive: 14.6 µM [activator, partial curve] |  |
| Cc1nnc(NN)n(N)c1=O | inconclusive: 20.6 µM [activator, single point] |  |
| CC(C)(C)OC(=O)C[C@@H]1C/C=C\C[C@@H](CC(=O)NCCO)C(=O)NC[C@@H](c2ccccc2)OC1=O |  | inactive: 13.8% |
| COc1ccc(N(Cc2cc3cc(OC)ccc3[nH]c2=O)C(=O)c2cccnc2)cc1 |  | inactive: -4.32% |
| COc1ccc(C(=O)N(Cc2nc(-c3ccc(C)cc3)no2)C(C)C)cc1OC |  | inactive: 1.56% |
| CN1CC(C(=O)Nc2ccc(F)c(Cl)c2)CC1=O (configuration not stated) |  | inactive: 8.64% |
| CCC(NC(=O)c1ccccc1NC(=O)c1ccco1)C(=O)NNC(=O)c1ccc(OC)cc1 (configuration not stated) |  | inactive: 13.8% |
| CCCCCCCCCCOC(=O)NC1CCS(=O)(=O)C1 (configuration not stated) | active: 23.1 µM |  |
| COc1cc(CCC(=O)N2CCN(c3cccc(C)c3C)CC2)cc(OC)c1OC | active: 18.3 µM |  |
| COc1ccc(NS(=O)(=O)c2cccc(C(=O)NNC(=O)c3cc(S(N)(=O)=O)ccc3OC)c2)cc1 |  | inactive: 6.88% |
| CCCC(=O)Nc1cc(OC)c(NC(=O)NC2CCCCC2)cc1OC |  | inactive: 1.4% |
| CCCN(CCC)CCCNC(=O)CS(=O)Cc1nc(-c2ccc(OC)c(OC)c2)oc1C (configuration not stated) |  | inactive: -16.7% |
| CCOC(=O)c1cc(-c2ccccc2C)n(CC2CC(c3ccc(OC)cc3)=NO2)n1 (configuration not stated) | inconclusive: 23.1 µM [inhibitor, single point] |  |
| COc1ccc(-c2c(C)nn3c(-c4ccccc4)cc(C)nc23)cc1 | inconclusive: 29.1 µM [inhibitor, single point] |  |
| CCN(CC)S(=O)(=O)c1cc(C(=O)OCC(=O)NC(=O)c2cccn2C)ccc1C | inconclusive: 23.1 µM [inhibitor, partial curve, poor fit] |  |
| Cc1cccc(N2CC(C(=O)Nc3ccc4c(c3)OCCO4)CC2=O)c1C (configuration not stated) | inconclusive: 29.1 µM [activator, single point] |  |
| CC(=O)N(c1ccc(C)cc1)S(=O)(=O)c1ccc(Cl)cc1 |  | inactive: -7.81% |
| O=C(Nc1nnc(C2=COCCO2)o1)c1cccc(C(F)(F)F)c1 |  | inactive: -1.39% |
| O=C(c1ccc(NC2=NC3CS(=O)(=O)CC3S2)cc1)N1CCN(c2ccc(F)cc2)CC1 (configuration not stated) | inconclusive: 0.291 µM [activator, full curve, poor fit] |  |
| COc1ccc(NC(=O)CSc2nnc(Cc3cccs3)n2-c2ccc(C)cc2)cc1 | inconclusive: 32.6 µM [inhibitor, partial curve, poor fit] |  |
| CCOC(=O)c1[nH]c2ccc(OC)cc2c1NC(=S)N1CCN(c2cccc(C)c2C)CC1 | active: 13 µM |  |

Part of the list above, with each value named.
CC(=O)N(c1ccc(C)cc1)S(=O)(=O)c1ccc(Cl)cc1
  activity change, negative = inhibition: inactive: -7.81%
O=C(Nc1nnc(C2=COCCO2)o1)c1cccc(C(F)(F)F)c1
  activity change, negative = inhibition: inactive: -1.39%
O=C(c1ccc(NC2=NC3CS(=O)(=O)CC3S2)cc1)N1CCN(c2ccc(F)cc2)CC1 (configuration not stated)
  Potency: inconclusive: 0.291 µM [activator, full curve, poor fit]

Next part

| Compound | Potency | activity change, negative = inhibition |
| --- | --- | --- |
| O=C(NC(=O)c1ccccc1O)c1ccc2c(c1)CCO2 | inconclusive: 3.26 µM [activator, partial curve] |  |
| N#C/C(=C\c1ccccn1)c1ccccn1 | inconclusive: 11.6 µM [inhibitor, partial curve, poor fit] |  |
| Cc1sc2nc(SCC(=O)NCc3ccco3)n(CCc3ccccc3)c(=O)c2c1C | inconclusive: 3.66 µM [inhibitor, single point] |  |
| Cc1ccc(NC(=O)c2cc(-c3cc(C)c(C)cc3O)n[nH]2)cc1C |  | inactive: 4.37% |
| C=Cc1ccc(Cn2c(=O)n(C)c(=O)c3sccc32)cc1 | inconclusive: 29.1 µM [activator, single point] |  |
| CCCCCn1cnc2sc(-c3ccccc3)cc2c1=O | inconclusive: 20.6 µM [activator, partial curve] |  |
| Cc1ccccc1-n1cc(C(=O)c2cc(Cl)ccc2O)cc(C#N)c1=O | inconclusive: 14.6 µM [inhibitor, partial curve] |  |
| CCOc1ccc(Br)cc1S(=O)(=O)Nc1ccc(NC(=O)c2ccccc2F)cc1 |  | inactive: -12.7% |
| Clc1ccc(-c2ccc(CNCc3ccccn3)o2)cc1 | inconclusive: 23.1 µM [activator, partial curve] |  |
| CC(=O)c1sc2nc(-c3ccco3)ccc2c1N | inconclusive: 20.6 µM [activator, partial curve] |  |
| CCOC(=O)c1c(NC(=O)COC(=O)CCNS(=O)(=O)c2ccccc2)sc(C(=O)N(C)C)c1C | inconclusive: 23.1 µM [inhibitor, single point] |  |
| O=C(Nc1nnc(-c2ccccc2)s1)c1ccccc1F | inconclusive: 10.3 µM [activator, partial curve] |  |
| COc1ccc(OC)c(/C=C/C(=O)c2ccc(Cl)cc2)c1 |  | inactive: -3.02% |
| O=C(COc1ccc2ccccc2c1)NNC(=O)c1ccc([N+](=O)[O-])cc1 |  | inactive: 7.35% |
| O=C(NCCc1ccc(C(F)(F)F)cc1)C1CCC(=O)N(CCCN2CCCC2=O)C1 (configuration not stated) |  | inactive: 13.3% |
| Cc1c(C(=O)Nc2ccc(-c3nnc4n3CCCCC4)cc2)oc2c1ccc1ccccc12 | active: 16.4 µM |  |
| Cc1ccc(OCC(=O)Nc2ccc(C)c(S(=O)(=O)N3CCCCCC3)c2)c([N+](=O)[O-])n1 | active: 16.4 µM |  |
| COc1cccc(C(=O)Nc2ccc3c(c2)C(=O)N(CC2CCCO2)C3=O)c1 (configuration not stated) | inconclusive: 18.3 µM [inhibitor, single point] |  |
| Cc1cc(OCC(=O)N2CCC(C(N)=O)CC2)c2c(C)c(C)c(=O)oc2c1 | inconclusive: 0.651 µM [inhibitor, partial curve, poor fit] |  |
| CCN(CC)C(=O)C(=O)c1cccn1-c1c(Cl)cccc1C#N |  | inactive: 2.56% |
| Cc1ccc(OCC(=O)Nc2ccc(NC(=O)c3ccccc3)cc2)cc1C | inconclusive: 10.3 µM [activator, single point] |  |
| CC(=O)C1=C(C)NC(SCC(=O)c2ccc(C)cc2)=C(C#N)C1c1ccco1 (configuration not stated) | inconclusive: 29.1 µM [inhibitor, single point] |  |
| Cc1cccc(N2CCN(C(=O)c3cc4c(=O)n(C)c5ccccc5c4n3C)CC2C)c1 (configuration not stated) | active: 14.6 µM |  |
| Cc1sc(NC(=O)CN2CCCC2)nc1-c1ccc2c(c1)CCN2C(=O)c1cccc(F)c1 | inconclusive: 32.6 µM [inhibitor, single point] |  |

In a second layout: entries from further up.
Compound | Potency | activity change, negative = inhibition
COc1ccc(OC)c(/C=C/C(=O)c2ccc(Cl)cc2)c1 |  | inactive: -3.02%
Cc1ccc(OCC(=O)Nc2ccc(C)c(S(=O)(=O)N3CCCCCC3)c2)c([N+](=O)[O-])n1 | active: 16.4 µM | 
